# According to PubChem BioAssay AID540276 (National Center for Advancing Translational Sciences (NCATS), 2011):
# The campaign covered roughly 300,000 compounds. About 5,400 (1.8%) were called active. The shares of active, inactive and inconclusive entries below differ from those in the screen. The call rests on the fitted dose curve; tested in HEK293 cells. Potencies beside an inconclusive call are fits to weak or partial responses and may not hold up.
# Test: qHTS for inhibitors of binding or entry into cells for Marburg Virus
# Conditions: Marburg virus pseudotyped entry inhibition, cell reporter; series mostly up to 37.8 µM
# Potency means the concentration at half of the fitted maximal effect.
row,Structure (SMILES),Potency
1,Cc1ccc(N(CC(=O)Nc2ccc(C)cc2C)S(=O)(=O)N2CCCC2)cc1,"inconclusive: 20.6 µM [inhibitor, single point]"
2,COc1ccc(C(=O)N/C(=C\c2cn(S(=O)(=O)N(C)C)c3ccccc23)C(=O)NCCCn2ccnc2)cc1,inactive
3,O=C1OCC/C1=C\c1ccc2c(c1)OCO2,inactive
4,CCN(CC)S(=O)(=O)c1ccc(C)c(NC(=O)CNCc2ccccc2OC)c1,active: 4.47 µM
5,Cc1ccccc1NS(=O)(=O)c1ccc(C(=O)N2CCCC(C(F)(F)F)C2)cc1 (configuration not stated),"inconclusive: 8.91 µM [inhibitor, partial curve, poor fit]"
6,CC(C)n1cc(CN2CCN(CCc3ccccc3)C(CCO)C2)cn1 (configuration not stated),"inconclusive: 2.82 µM [activator, single point]"
7,COc1ccc(-n2nc(C(=O)NCC(=O)NCc3ccccc3OC)c3ccccc3c2=O)c(OC)c1,inactive
8,CC(C)Oc1ccc(OCCNC2CCCC2)cc1,inactive
9,CC(CN1CCCCC1)C(=O)NNC(=O)C12CC3CC(CC(C3)C1)C2 (configuration not stated),inactive
10,CSCC[C@H](NC(=O)C(C)(C)Oc1ccc(Cl)cc1)c1nc2ccccc2[nH]1,inactive
11,CCCCNC(=O)C(c1ccc(-c2ccccc2)cc1)N(CCN1CCOCC1)C(=O)CCCCCN1C(=O)NC(c2ccc([N+](=O)[O-])cc2)C(C(=O)OCc2ccccc2)=C1C (configuration not stated),"inconclusive: 29.1 µM [inhibitor, single point]"
12,CN(C(=O)C1CCCO1)c1nnc(-c2ccncc2)s1 (configuration not stated),inactive
13,O=C1C(Cc2ccc(Br)cc2)SC(=Nc2ccccc2)N1c1ccccc1 (configuration not stated),"inconclusive: 35.5 µM [inhibitor, single point]"
14,CS(=O)(=O)c1ccc(-c2nnc(NC(=O)c3ccc(S(=O)(=O)N4CCCC4)cc3)o2)cc1,inactive
15,Cn1nc(C(=O)N2CCOCC2)c([N+](=O)[O-])c1C(=O)N1CCOCC1,"inconclusive: 3.16 µM [activator, partial curve, poor fit]"
16,O=C(CCN1CCN(c2ccccc2)CC1)N/N=C/c1ccc([N+](=O)[O-])o1,"inconclusive: 15.8 µM [inhibitor, single point]"
17,O=C(CSc1nnc(-c2ccccn2)n1Cc1ccco1)c1ccccc1,"inconclusive: 6.51 µM [inhibitor, partial curve, poor fit]"
18,CC1Cc2cc(-c3csc(N)n3)ccc2O1 (configuration not stated),"inconclusive: 1.12 µM [activator, partial curve, poor fit]"
19,COc1cccc(-c2nc(CS(=O)(=O)CC(=O)NC3CCCC3)c(C)o2)c1,"inconclusive: 10 µM [inhibitor, partial curve, poor fit]"
20,O=S(=O)([N-]c1nc2ccccc2nc1-[n+]1ccccc1)c1ccc(F)cc1,inactive
21,CC1Cc2ccccc2N1C(=O)CSc1nnnn1-c1ccc2c(c1)OCCO2 (configuration not stated),"inconclusive: 23.1 µM [inhibitor, single point]"
22,O=C1CSC(c2cn(-c3ccccc3)nc2-c2ccc3c(c2)OCCO3)N1CCN1CCOCC1 (configuration not stated),inactive
23,O=C(NCCCN1CCCC1=O)Nc1ccc(Cl)cc1,"inconclusive: 25.9 µM [activator, single point]"

row,Structure (SMILES),Potency
1,Cc1cc(=O)oc2cc(NC(=O)C3CCCC3)ccc12,"inconclusive: 1.78 µM [activator, partial curve, poor fit]"
2,Fc1ccccc1N1CCN(c2c3c(nc4nncn24)CCC3)CC1,inactive
3,CCOc1cc(/C=N/NC(=O)Cn2nc([N+](=O)[O-])cc2C)cc(Br)c1OCc1ccccc1F,"inconclusive: 20.6 µM [inhibitor, single point]"
4,Cc1cc(NC(=O)C2CCN(S(=O)(=O)c3cnc[nH]3)CC2)ccc1Br,"inconclusive: 6.31 µM [inhibitor, single point]"
5,COc1cccc(N=CC2=C(O)CC(C)(C)CC2=O)c1,"inconclusive: 0.316 µM [activator, partial curve, poor fit]"
6,Cc1csc2c(N3CCN(C(=O)Nc4ccccc4)CC3)ncnc12,"inconclusive: 7.08 µM [inhibitor, partial curve, poor fit]"
7,CC(=O)c1cccc(NC(=O)c2ccc(NS(C)(=O)=O)cc2)c1,inactive
8,CC(C)CC(NC(=O)c1ccc(Cl)cc1Cl)C(=O)O (configuration not stated),inactive
9,Cc1cc(C)cc(N2C(=O)CC(N3CCOCC3)C2=O)c1 (configuration not stated),"inconclusive: 9.2 µM [activator, partial curve]"
10,COC(=O)C(Cc1cnc(Cl)s1)(C(=O)OC)c1ccccc1[N+](=O)[O-],"inconclusive: 0.501 µM [inhibitor, full curve, poor fit]"
11,Cc1ccc(NC(=O)C(NC2CCCc3ccccc32)c2ccccc2)c([N+](=O)[O-])c1 (configuration not stated),"inconclusive: 17.8 µM [inhibitor, single point]"
12,COc1ccc(CNC(=O)C/C(C)=N/NC(=O)C(c2ccccc2)c2ccccc2)cc1,inactive
13,Cc1ccccc1-c1cccc([C@@H]2C[C@H]3CN(Cc4cccnc4)C(=O)[C@]34CCCN24)c1,"inconclusive: 10 µM [inhibitor, partial curve, poor fit]"
14,COc1ccc(CCNC(=O)CSc2nn(-c3ccccc3)c(=S)s2)cc1OC,inactive
15,Cc1cc2nnn(-c3nnc(-c4ccccc4)c4ccccc34)c2cc1C,inactive
16,Cc1cccc(N2CCN(C(=O)c3ccc(NC(=O)C4CCCO4)cc3)CC2C)c1 (configuration not stated),"inconclusive: 0.73 µM [inhibitor, full curve, poor fit]"
17,CCCCOc1ccc(/C=C/C(=O)NC2=Nc3ccccc3NC(C)=C2C(=O)OCC)cc1OC,active: 6.31 µM
18,COc1ccc(NC(=O)Nc2cccs2)cn1,inactive
19,O=C(CNC(=O)c1ccc(Br)o1)NCc1ccc(Cl)cc1Cl,inactive
20,O=C(CSc1nnc2c(n1)[nH]c1ccc(F)cc12)N1CCOCC1,inactive
21,CC(C)(C)NS(=O)(=O)c1ccc(C(=O)Nc2ccc3c(c2)OCO3)cc1,"inconclusive: 35.5 µM [activator, single point]"
22,NC(=O)c1nsc(C(=O)N(c2ccc3c(c2)OCCO3)C(C(=O)NCC2CCCO2)c2ccc(F)cc2)c1N (configuration not stated),"inconclusive: 35.5 µM [inhibitor, partial curve, poor fit]"
23,CCOC(=O)C1CCCN(CCSc2ccc(C)cc2)C1 (configuration not stated),inactive

row,Structure (SMILES),Potency
1,CSc1n[nH]c(NCc2ccccc2)n1,inactive
2,Cc1nn(-c2ccccc2)c(C)c1C(=O)OCC(=O)N(C)c1c(N)n(Cc2ccccc2)c(=O)[nH]c1=O,"inconclusive: 35.5 µM [activator, single point]"
3,C=CCn1c(SCC(=O)N2CC(=O)Nc3ccccc32)nc2scc(-c3cccs3)c2c1=O,"inconclusive: 18.3 µM [inhibitor, partial curve, poor fit]"
4,O=C(Nc1ccc(S(=O)(=O)N2CCN(c3ccccc3)CC2)cc1)c1cccs1,"inconclusive: 9.2 µM [inhibitor, partial curve]"
5,Cc1cccc(N(CC(=O)NCCSCc2ccco2)S(=O)(=O)c2ccccc2)c1,"inconclusive: 35.5 µM [inhibitor, single point]"
6,Cc1nn(-c2ccccc2)c(N2CCCC2)c1/C=N/NC(=O)c1cc(-c2ccccn2)nc2ccccc12,"inconclusive: 22.4 µM [inhibitor, single point]"
7,Cc1cccc(C(=O)NN/C=C/C(=O)c2ccccc2)c1,"inconclusive: 35.5 µM [inhibitor, single point]"
8,CCN(CC)CC(=O)Nc1c(C)cc(C(C)(C)C)cc1C,inactive
9,CCOC(=O)c1ccc(NC(=O)CCNS(=O)(=O)c2ccc3c(c2)oc(=O)n3C)cc1,inactive
10,Cc1ccc(NC(=S)N(CCN2CCCCC2)Cc2ccco2)cc1Cl,"inconclusive: 35.5 µM [inhibitor, single point]"
11,CCOC(=O)c1ccc(N2C(=O)c3n[nH]c(C)c3C2c2ccc(OC)cc2OC)cc1 (configuration not stated),"inconclusive: 16.4 µM [inhibitor, partial curve]"
12,CCOC(=O)C1=C(N)Oc2cc(O)ccc2C1c1ccc([N+](=O)[O-])cc1 (configuration not stated),"inconclusive: 8.91 µM [inhibitor, partial curve, poor fit]"
13,Cc1cccc(N/N=C(\C(N)=O)C2=NC(C)(C)Cc3ccccc32)c1,"inconclusive: 3.98 µM [inhibitor, full curve, poor fit]"
14,CCOC(=O)c1sc(N2C(=O)c3oc4ccc(F)cc4c(=O)c3C2c2ccc(O)cc2)nc1C (configuration not stated),inactive
15,CCOC(=O)C1(CCCc2ccccc2)CCN(Cc2ccn[nH]2)CC1,"inconclusive: 11.2 µM [inhibitor, partial curve, poor fit]"
16,O=C(c1ccc(Cl)cc1)C(Cn1cncn1)C(Sc1ccccc1)c1ccccc1 (configuration not stated),"inconclusive: 14.1 µM [inhibitor, single point]"
17,CCOc1cc(/C=C/c2nc3ccccc3s2)ccc1OCC(=O)N1CCOCC1,"inconclusive: 29.1 µM [inhibitor, single point]"
18,COc1ccc(C(=O)N2CCCC2)cc1S(=O)(=O)N1CCOCC1,inactive
19,Cc1cc(C)n2nc(SCC(=O)N(CCC#N)c3ccccc3F)nc2n1,"inconclusive: 1.26 µM [activator, single point]"
20,O=C(N/N=C/c1ccc([N+](=O)[O-])o1)c1cc(-c2ccncc2)nc2ccccc12,"inconclusive: 9.2 µM [inhibitor, partial curve]"
21,COc1ccc(-c2noc(C3CCCN(C(=O)c4ccc(F)cc4)C3)n2)cc1 (configuration not stated),"inconclusive: 10 µM [inhibitor, partial curve, poor fit]"

# Sorted by count of non-hydrogen atoms (smallest number first): part of the list above
row,Structure (SMILES),Potency
18,COc1ccc(C(=O)N2CCCC2)cc1S(=O)(=O)N1CCOCC1,inactive
15,CCOC(=O)C1(CCCc2ccccc2)CCN(Cc2ccn[nH]2)CC1,"inconclusive: 11.2 µM [inhibitor, partial curve, poor fit]"
3,C=CCn1c(SCC(=O)N2CC(=O)Nc3ccccc32)nc2scc(-c3cccs3)c2c1=O,"inconclusive: 18.3 µM [inhibitor, partial curve, poor fit]"
14,CCOC(=O)c1sc(N2C(=O)c3oc4ccc(F)cc4c(=O)c3C2c2ccc(O)cc2)nc1C (configuration not stated),inactive
6,Cc1nn(-c2ccccc2)c(N2CCCC2)c1/C=N/NC(=O)c1cc(-c2ccccn2)nc2ccccc12,"inconclusive: 22.4 µM [inhibitor, single point]"
